Test results from article PMC9771724.
No constants are given. Whether binding was seen depends on the method and setting. Some binding calls cover weakened binding; strength is not graded here.

Amino acid sequences for entries named in this document (tags omitted).
UniProt Q9UJU2: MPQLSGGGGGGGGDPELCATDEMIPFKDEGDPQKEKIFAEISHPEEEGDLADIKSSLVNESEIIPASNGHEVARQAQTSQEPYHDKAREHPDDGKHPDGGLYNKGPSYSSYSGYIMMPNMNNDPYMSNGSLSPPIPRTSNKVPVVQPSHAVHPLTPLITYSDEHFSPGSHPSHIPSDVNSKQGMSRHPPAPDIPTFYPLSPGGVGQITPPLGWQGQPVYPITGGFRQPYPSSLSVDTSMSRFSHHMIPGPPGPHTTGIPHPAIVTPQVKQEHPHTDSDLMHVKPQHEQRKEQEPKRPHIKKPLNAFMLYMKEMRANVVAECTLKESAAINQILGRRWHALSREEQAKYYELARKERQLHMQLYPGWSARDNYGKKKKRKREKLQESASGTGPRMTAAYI
UniProt P36402: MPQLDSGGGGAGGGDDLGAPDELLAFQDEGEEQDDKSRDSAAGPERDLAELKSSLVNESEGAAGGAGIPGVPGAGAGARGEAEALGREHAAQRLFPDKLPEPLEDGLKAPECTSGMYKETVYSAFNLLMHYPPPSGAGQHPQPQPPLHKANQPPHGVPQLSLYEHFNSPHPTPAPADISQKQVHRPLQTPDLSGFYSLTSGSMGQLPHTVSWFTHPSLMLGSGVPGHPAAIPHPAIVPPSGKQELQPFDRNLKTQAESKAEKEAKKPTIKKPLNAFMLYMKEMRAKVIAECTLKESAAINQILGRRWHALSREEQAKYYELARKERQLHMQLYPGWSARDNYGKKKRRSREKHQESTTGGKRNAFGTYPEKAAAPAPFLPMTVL
UniProt P48436: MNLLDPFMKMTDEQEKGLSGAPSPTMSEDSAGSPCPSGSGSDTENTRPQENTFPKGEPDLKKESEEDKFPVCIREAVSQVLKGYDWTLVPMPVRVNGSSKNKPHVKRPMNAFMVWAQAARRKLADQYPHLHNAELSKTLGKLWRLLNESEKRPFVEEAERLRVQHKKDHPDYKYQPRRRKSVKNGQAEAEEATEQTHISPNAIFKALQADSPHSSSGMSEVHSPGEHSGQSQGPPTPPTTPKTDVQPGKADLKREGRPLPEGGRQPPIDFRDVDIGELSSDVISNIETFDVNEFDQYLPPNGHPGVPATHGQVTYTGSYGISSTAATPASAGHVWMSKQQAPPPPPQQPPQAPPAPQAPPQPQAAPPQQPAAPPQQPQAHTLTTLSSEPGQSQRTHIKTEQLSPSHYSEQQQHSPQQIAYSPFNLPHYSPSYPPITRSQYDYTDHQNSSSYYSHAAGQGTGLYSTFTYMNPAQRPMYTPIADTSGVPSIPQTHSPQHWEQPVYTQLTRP

Tests used:
GST-tagged LEF1 = GST-tagged LEF1 (UniProt Q9UJU2); test: pull-down; GST-tagged proteins as bait on glutathione-sepharose, His-tagged proteins as prey; 0.25 to 2 ug of each protein; 25 mM Hepes pH 7.5, 12.5 mM MgCl2, 300 mM KCl, 0.1% NP-40, 1 mg/ml BSA, 1 mM DTT; 4 °C; washes with 400 mM KCl, 0.5% NP-40; Western blot; HMG-HMG pair also tested with Mnase treatment; both purified
GST-tagged TCF7 = GST-tagged TCF7 (UniProt P36402); test: as above

binding (GST-tagged LEF1): binds
binding (GST-tagged TCF7): binds
Substance: His-tagged full-length SOX9 (from UniProt P48436 1-509)
